Laboratory results taken from patent US20070059632A1, “Method of manufacturing a semiconductor device” (priority 2003, published 2007).

Assays:
[1] = Adhesion to silicon substrate; design: key: A: the resist film formed in the evaluation 2 did not peel off the silicon wafer; B: did not peel off when a surface treating agent (silane coupling agent) was used; C: peeled off even when a surface treating agent was used; conditions: resist film on silicon wafer, without or with silane coupling agent
[2] = Film-forming properties of radiation sensitive compositions; format: physicochemical; design: key: C: the resist film was whitened or its surface was roughened; B: partially whitened or partially roughened; A: the surface appeared good; conditions: 10% by weight solution in PGMEA spin-coated on silicon wafer, film about 0.2 μm, 3 min at about 110° C.

SMILES	(4) Adhesion to Si substrate [1]	(2) Film-forming properties [2]
Oc1ccc(C(c2ccc(OC3CCCCO3)cc2)c2ccc(-c3ccccc3)cc2)cc1 (centres unmarked) [Compound 6-1]	A	A
Oc1ccc2c(c1)Oc1cc(OC3CCCCO3)ccc1C2c1ccc(-c2ccccc2)cc1 (centres unmarked) [Compound 10-2]	A	A
CCOC(C)Oc1ccc(C2(c3ccc(O)c(C4CCCCC4)c3)Cc3cccc4cccc2c34)cc1C1CCCCC1 (centres unmarked) [Compound 8-3]	A	A
CC(C)(C)OC(=O)Oc1ccc(C2(c3ccc(OC(=O)OC(C)(C)C)c(OC(=O)OC(C)(C)C)c3)c3ccccc3-c3ccccc32)cc1OC(=O)OC(C)(C)C [Compound 7-1]	B	B
Cc1cc(C(C)(c2ccc(O)c(C)c2)c2ccc3ccccc3c2)ccc1O [Compound 14-5, 1-(2-naphthyl)-1,1-bis(3-methyl-4-hydroxyphenyl)ethane, reference compound]	–	A
CC(C)(C)OC(=O)Oc1ccc(C2(c3ccc(OC(=O)OC(C)(C)C)cc3)C(=O)c3cccc4cccc2c34)cc1 [Compound 8-4]	A	A
CC(C)(C)OC(=O)Oc1ccc(C(c2ccc(OC(=O)OC(C)(C)C)cc2)c2ccc(OC(=O)OC(C)(C)C)cc2)cc1 [Compound 14-3, reference compound]	C	A
Cc1cc(C(C)(c2ccc(OC(C)OC3CCCCC3)c(C)c2)c2ccc3ccccc3c2)ccc1O (centres unmarked) [Compound 5-5]	A	A
CC(C)(C)OC(=O)Oc1ccc(C(c2ccc(O)cc2)c2cccc3ccccc23)cc1 (centres unmarked) [Compound 5-9]	A	A
CC(C)(C)OC(=O)Cc1cc(C(C)(c2ccc(OC(=O)OC(C)(C)C)c(OC(=O)OC(C)(C)C)c2)c2ccc3ccccc3c2)ccc1OC(=O)OC(C)(C)C (centres unmarked) [Compound 5-3]	B	A
CC(C)(C)OC(=O)Oc1ccc(-c2cc(-c3ccc(OC(=O)OC(C)(C)C)cc3)cc(-c3ccc(OC(=O)OC(C)(C)C)cc3)c2)cc1 [Compound 14-4, reference compound]	C	B
Oc1ccc(C2(c3ccc(OC4CCCCO4)cc3)Cc3cccc4cccc2c34)cc1 (centres unmarked) [Compound 8-1]	A	A
CC(C)(C)OC(=O)Oc1cc(C2(c3ccc(OC(=O)OC(C)(C)C)c(OC(=O)OC(C)(C)C)c3)c3ccccc3-c3ccccc32)ccc1O [Compound 7-2]	A	A
CCOC(C)Oc1ccc(C(C)(c2ccc(O)c(C3CCCCC3)c2)c2ccc3ccccc3c2)cc1C1CCCCC1 (centres unmarked) [Compound 5-7]	A	A
CC(C)(C)OC(=O)Oc1ccc2c(c1)Oc1cc(OC(=O)OC(C)(C)C)ccc1C21c2ccccc2-c2ccccc21 [Compound 11-2]	B	B
CCOC(C)Oc1ccc2c(c1)Oc1cc(O)ccc1C21Cc2cccc3cccc1c23 (centres unmarked) [Compound 12-1]	A	A
O=C1c2cccc3cccc(c23)C1(c1ccc(O)cc1)c1ccc(OC2CCCCO2)cc1 (centres unmarked) [Compound 8-2]	A	A
CC(C)(C)OC(=O)Oc1ccc2c(c1)Oc1cc(O)ccc1C21c2ccccc2-c2ccccc21 [Compound 11-1]	A	A
Oc1ccc(C2(c3ccc(OC4CCCCO4)cc3)c3ccccc3-c3ccccc32)cc1 (centres unmarked) [Compound 7-4]	A	A
Cc1cc(C(C)(c2ccc(OC(=O)OC(C)(C)C)c(C)c2)c2ccc3ccccc3c2)ccc1OC(=O)OC(C)(C)C [Compound 5-1]	A	A
CC(C)(C)OC(=O)Oc1ccc(C(C)(c2ccc(O)cc2)c2ccc3ccccc3c2)cc1 (centres unmarked) [Compound 5-8]	A	A
CCOC(C)Oc1ccc2c(c1)Oc1cc(O)ccc1C21c2ccccc2-c2ccccc21 (centres unmarked) [Compound 11-3]	A	A
CC(C)(C)OC(=O)Cc1cc(C2(c3cc(OC(=O)OC(C)(C)C)c(OC(=O)OC(C)(C)C)c(OC(=O)OC(C)(C)C)c3)c3ccccc3-c3ccccc32)cc(OC(=O)OC(C)(C)C)c1OC(=O)OC(C)(C)C [Compound 7-3]	A	A
Cc1cc(C(C)(c2ccc(OC3CCCCO3)c(C)c2)c2ccc3ccccc3c2)ccc1O (centres unmarked) [Compound 5-6]	A	A
CCCCOC(=O)Oc1ccc2c(c1)Oc1cc(OC(=O)OCCCC)ccc1C2c1ccc(-c2ccccc2)cc1 [Compound 10-1]	B	A
Cc1cc(C(C)(c2ccc(OC(=O)OC(C)(C)C)c(C)c2)c2ccc3ccccc3c2)ccc1O (centres unmarked) [Compound 5-2]	A	A
O=C1c2ccccc2C(c2ccc(O)cc2)(c2ccc(OC3CCCCO3)cc2)c2ccccc21 (centres unmarked) [Compound 7-5]	A	A
CC1(c2ccc3ccccc3c2)c2ccc(O)cc2Oc2cc(OC3CCCCC3)ccc21 (centres unmarked) [Compound 9-1]	A	A
CCOC(C)Oc1ccc(C(C)(c2ccc(O)c(C)c2)c2ccc3ccccc3c2)cc1C (centres unmarked) [Compound 5-4]	A	A
CCOC(C)Oc1ccc(C2(c3ccc(O)c(-c4ccccc4)c3)Cc3cccc4cccc2c34)cc1-c1ccccc1 (centres unmarked) [Compound 8-5]	A	A
